This is an account of results in patent publication US20220411491A1.

Sequences of proteins named here, by UniProt entry; tags and fusion partners are left off. A change or cut given only in a name is not applied to a line headed by its entry.
UniProt Q9NZD1: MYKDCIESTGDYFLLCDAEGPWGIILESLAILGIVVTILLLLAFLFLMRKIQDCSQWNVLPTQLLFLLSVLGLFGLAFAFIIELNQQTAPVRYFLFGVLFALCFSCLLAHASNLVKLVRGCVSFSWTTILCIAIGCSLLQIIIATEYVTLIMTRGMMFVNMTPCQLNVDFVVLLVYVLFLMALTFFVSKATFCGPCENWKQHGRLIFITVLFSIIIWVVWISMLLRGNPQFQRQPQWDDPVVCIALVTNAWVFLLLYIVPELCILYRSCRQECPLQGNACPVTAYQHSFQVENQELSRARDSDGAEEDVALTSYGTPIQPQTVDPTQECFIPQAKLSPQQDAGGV

Results are given in words; binding and its absence hold for the method and conditions named. Some binding calls cover weakened binding; strength is not graded here.

The target of the assay is human GPRC5D (human) (UniProt Q9NZD1). Kind of assay: cell ELISA on CHO cells expressing human GPRC5D. On the technique in general: An ELISA detects its analyte on a solid surface through an enzyme-linked reagent.

B1: 07A04 IgG (antibody, V domains shown)
VH: QVTLKESGPGILQPSHTLSLTCSFSGFSLSTYGMGVNWIRQPSGKGLEWLASIWWNGNTYNNPSLKSRLTVSKDTSNNQAFLKVTSVDTADTATYYCVHTRGIIRGRGLFFDYWGQGVMVTVSS
VL: DVQMTQSPYNLAASPGESVSINCKASKSISKYLAWYQQKPGKANKLLIYDGSTLQSGIPSRFSGSGSGTDFTLTIRSLEPEDFGLYYCQQHNEYPLTFGSGTKLEIKR
B1: the binding result was “binds”.
